Reference: PubChem BioAssay AID248 (DTP/NCI, 2004)
The list does not hold the whole screen: it is rich in T/C values a quarter to a half above the control, in often repeated tests (any T/C) and in doses without a T/C. Other doses and runs of a compound stand elsewhere. T/C gives the treated animals as a percentage of the vehicle group. Some entries give survivors of the animals treated and no T/C: the source holds a T/C of zero for them, seemingly a mark for toxic or unscored doses. Some survivor counts are full or nearly so, which does not show that the dose was tolerated: survival well below the control is almost never listed, so the zero probably covers shortened survival too. Counts of survivors are from the toxicity check (mostly the fifth day) where no day follows; animals may have died later. Schedules are NCI's codes, taken here to give the interval after Q, in days (D) or hours (H), and the number of doses after X. Some doses were run more than once; their values stand side by side, smallest first. For survival time, the PubChem record calls one and a half times the control and up active, and a quarter to a half above the control has no call in these data; cut-offs in other NCI protocols can differ. Some schedule codes hold Z or #, which are not explained here.

Test system: L1210 leukemia ip in BDF1 mice, survival T/C
Assay: NCI In Vivo Anticancer Drug Screen. Data for tumor model L1210 Leukemia (intraperitoneal) in B6D2F1 (BDF1) mice
Details: T/C endpoint: mean survival time, higher T/C = longer survival
[1] = dose: 400.0 mg/kg/injection, schedule: Q04DX003 (ip), vehicle: Klucel (hydroxypropylcellulose) (HPC)
[2] = dose: 400.0 mg/kg/injection, schedule: Q01DX009 (ip), vehicle: gum acacia
[3] = dose: 300.0 mg/kg/injection, schedule: Q01DX001 (ip), vehicle: saline
[4] = dose: 200.0 mg/kg/injection, schedule: Q01DX001 (ip), vehicle: saline with Tween-80
[5] = dose: 400.0 mg/kg/injection, schedule: Q01DX001 (ip), vehicle: saline with Tween-80
[6] = dose: 100.0 mg/kg/injection, schedule: Q01DX009 (ip), vehicle: saline with Tween-80
[7] = dose: 200.0 mg/kg/injection, schedule: Q04DX003 (ip), vehicle: Klucel (hydroxypropylcellulose) (HPC)
[8] = dose: 200.0 mg/kg/injection, schedule: Q04DX003 (ip), vehicle: saline
[9] = dose: 400.0 mg/kg/injection, schedule: Q04DX003 (ip), vehicle: saline
[10] = dose: 100.0 mg/kg/injection, schedule: Q01DX001 (ip), vehicle: carboxymethylcellulose (CMC)
[11] = dose: 400.0 mg/kg/injection, schedule: Q01DX009 (ip), vehicle: Klucel (hydroxypropylcellulose) (HPC)
[12] = dose: 400.0 mg/kg/injection, schedule: Q01DX001 (ip), vehicle: saline
[13] = dose: 200.0 mg/kg/injection, schedule: Q01DX009 (ip), vehicle: Klucel (hydroxypropylcellulose) (HPC)
[14] = dose: 200.0 mg/kg/injection, schedule: Q01DX009 (ip), vehicle: saline with Tween-80
[15] = dose: 400.0 mg/kg/injection, schedule: Q04DX003 (ip), vehicle: saline with Tween-80
[16] = dose: 400.0 mg/kg/injection, schedule: Q01DX009 (ip), vehicle: saline with Tween-80
[17] = dose: 400.0 mg/kg/injection, schedule: Q01DX001 (ip), vehicle: carboxymethylcellulose (CMC)
[18] = dose: 200.0 mg/kg/injection, schedule: Q01DX001 (ip), vehicle: saline
[19] = dose: 100.0 mg/kg/injection, schedule: Q04DX002 (ip), vehicle: saline with Tween-80

In the case of `CCC(C)C1NC(=O)C(NC(=O)c2c3nc4c(C(=O)NC5C(=O)NC(C(C)CC)C(=O)N6CCCC6C(=O)N(C)CC(=O)N(C)C(C(C)C)C(=O)OC5C)cc(N)c(C)c4oc-3c(C)c(=O)c2N)C(C)OC(=O)C(C(C)C)N(C)C(=O)CN(C)C(=O)C2CCCN2C1=O` (stereo not given), the T/C (dose: 200.0 micrograms/kg/injection, schedule: Q01DX009 (ip), vehicle: saline + alcohol) is reported as 130 % of control, the T/C (dose: 400.0 micrograms/kg/injection, schedule: Q04DX003 (ip), vehicle: saline + alcohol) is reported as 126 % of control and the T/C (dose: 600.0 micrograms/kg/injection, schedule: Q04DX003 (ip), vehicle: saline + alcohol) is reported as 130 % of control. The T/C (dose: 800.0 micrograms/kg/injection, schedule: Q04DX003 (ip), vehicle: saline + alcohol) was 138 % of control, the T/C (dose: 1200.0 micrograms/kg/injection, schedule: Q04DX003 (ip), vehicle: saline + alcohol) was 133 % of control and the T/C (dose: 1600.0 micrograms/kg/injection, schedule: Q04DX003 (ip), vehicle: saline + alcohol) was 135 % of control.

For `c1ccc(C(c2ccccc2)C2CCCCC2)cc1`, the survivor count [1] was 6 of 6.

`CNC(=O)NO` was tested, and the T/C (dose: 100.0 mg/kg/injection, schedule: Q01DX Z (ip), vehicle: water) was 143 % of control.

In the case of `CCC/C=N/Nc1ccnc(SC)n1`, the survivor count (dose: 200.0 mg/kg/injection, schedule: Q01DX009 (ip), vehicle: gum acacia) is reported as 6 of 6 and the survivor count [2] is reported as 0 of 6.

With `ClCCCNCCCCl` the survivor count [3] was 2 of 6.

In the case of `O=[N+]([O-])c1cnc(C2=C(O)c3ccccc3CC2)s1`, the survivor count [4] is reported as 0 of 3 and the survivor count [5] is reported as 1 of 3.

With `O=S1(=O)C=C(c2ccccc2)C(c2ccccc2)=C1` the survivor count (dose: 50.0 mg/kg/injection, schedule: Q01DX009 (ip), vehicle: saline with Tween-80) was 6 of 6, the survivor count [6] was 3 of 6 and 4 of 6 and the survivor count [7] was 6 of 6. For the same compound, the survivor count [1] was 4 of 6.

In the case of `CCNC(Cc1ccccc1)C1CCCO1` (stereo not given), the survivor count (dose: 200.0 mg/kg/injection, schedule: Q01DX009 (ip), vehicle: saline) is reported as 0 of 6, the survivor count [8] is reported as 2 of 4 and the survivor count (dose: 400.0 mg/kg/injection, schedule: Q01DX009 (ip), vehicle: saline) is reported as 0 of 6. The survivor count [9] was 0 of 4.

In the case of `CCCCC(CCC)(CCC)CCN`, the survivor count (dose: 12.5 mg/kg/injection, schedule: Q01DX001 (ip), vehicle: carboxymethylcellulose (CMC)) is reported as 2 of 4, the survivor count (dose: 20.0 mg/kg/injection, schedule: Q01DX015 (ip), vehicle: carboxymethylcellulose (CMC)) is reported as 3 of 6 and the survivor count (dose: 25.0 mg/kg/injection, schedule: Q01DX001 (ip), vehicle: carboxymethylcellulose (CMC)) is reported as 2 of 4. The survivor count (dose: 50.0 mg/kg/injection, schedule: Q01DX001 (ip), vehicle: carboxymethylcellulose (CMC)) was 0 of 4 and the survivor count [10] was 0 of 4.

For `CCCSCCCC(=O)O`, the survivor count [11] was 2 of 6.

In the case of `O=[N+]([O-])/C=C/c1ccc(O)cc1`, the survivor count (dose: 100.0 mg/kg/injection, schedule: Q01DX015 (ip), vehicle: saline) is reported as 0 of 6, the survivor count (dose: 100.0 mg/kg/injection, schedule: Q04DX003 (ip), vehicle: acetone) is reported as 2 of 6 and the survivor count (dose: 200.0 mg/kg/injection, schedule: Q01DX015 (ip), vehicle: saline) is reported as 0 of 6.

For `COc1cc(C=O)c([N+](=O)[O-])cc1OC`, the survivor count [12] was 0 of 6.

In the case of `COc1cc2cccc(OC)c(=O)c2c(O)c1OC`, the survivor count [13] is reported as 0 of 6 and the survivor count [11] is reported as 0 of 6.

`C=C1N(C)c2ccc(Cl)cc2C1(C)C` was tested, and the survivor count [14] was 6 of 6 and the survivor count [15] was 5 of 6.

For `COc1ccc2nc3cc(Cl)ccc3c(Nc3ccc(O)cc3)c2c1`, the survivor count [16] was 5 of 6.

`Cc1cccc(C2=CCCCC2)c1` was tested, and the survivor count [17] was 2 of 4.

For `CCCCNC(=O)/C=C\C(=O)O`, the survivor count [7] was 6 of 6.

`C[N+](C)(C)CC1COCCO1` (stereo not given) was tested, and the survivor count (dose: 10.0 mg/kg/injection, schedule: Q01DX001 (ip), vehicle: saline) was 1 of 4, the survivor count (dose: 20.0 mg/kg/injection, schedule: Q01DX001 (ip), vehicle: saline) was 0 of 4 and the survivor count (dose: 40.0 mg/kg/injection, schedule: Q01DX001 (ip), vehicle: saline) was 0 of 4. For the same compound, the survivor count (dose: 50.0 mg/kg/injection, schedule: Q01DX001 (ip), vehicle: saline) was 0 of 4, the survivor count (dose: 80.0 mg/kg/injection, schedule: Q01DX001 (ip), vehicle: saline) was 0 of 4 and the survivor count (dose: 100.0 mg/kg/injection, schedule: Q01DX001 (ip), vehicle: saline) was 0 of 4. For the same compound, the survivor count [18] was 0 of 4 and the survivor count [12] was 0 of 4.

With `O=C(O)CCCc1nc2ccccc2c(=O)[nH]1` the T/C [10] was 141 % of control.

In the case of `CC(=O)CC(=O)Nc1ccc(C(=O)c2ccccc2)cc1`, the survivor count (dose: 150.0 mg/kg/injection, schedule: Q01DX001 (ip), vehicle: acetone) is reported as 6 of 6.

With `O=C1/C(=C\c2ccccc2)Oc2cc(O)c(O)cc21` the survivor count [4] was 2 of 6 and the survivor count [5] was 0 of 6.

`CCNC(=O)c1ccccc1-c1ccccc1C(=O)NCC` was tested, and the survivor count (dose: 200.0 mg/kg/injection, schedule: Q01DX001 (ip), vehicle: other) was 0 of 4 and the survivor count (dose: 400.0 mg/kg/injection, schedule: Q01DX001 (ip), vehicle: other) was 0 of 4.

For `O=C(NCCCN1CC1)C(=O)NNc1ccccc1`, the survivor count [1] was 3 of 6.

With `C#CC[N+](CCO)(CCO)CCCCCCCCCCCCCCCCCC` the survivor count [19] was 1 of 3, the survivor count (dose: 200.0 mg/kg/injection, schedule: Q04DX002 (ip), vehicle: saline with Tween-80) was 0 of 3 and the survivor count (dose: 400.0 mg/kg/injection, schedule: Q04DX002 (ip), vehicle: saline with Tween-80) was 0 of 3.

In the case of `O=[N+]([O-])c1c[nH]c2ncnc(Cl)c12`, the survivor count [17] is reported as 2 of 4.

`C=C(Br)CSC#N` was tested, and the survivor count [6] was 4 of 6, the survivor count [14] was 0 of 6 and the survivor count [16] was 0 of 6.

In the case of `Nc1cc(Cl)[nH]c(=O)n1`, the survivor count [2] is reported as 6 of 6.

With `COc1c(Cl)c(C)c(Cl)c(C)c1C#CC(=O)O` the survivor count [1] was 1 of 6.

`Cc1ccc(N=Nc2c(C)nn(C(N)=S)c2C)cc1` was tested, and the survivor count (dose: 300.0 mg/kg/injection, schedule: Q01DX001 (ip), vehicle: other) was 0 of 6.

In the case of `S=C=NC1CCC(CC2CCCCC2)CC1` (stereo not given), the survivor count [13] is reported as 2 of 6 and the survivor count [11] is reported as 1 of 6.

`CCC1CN1P(=O)(N(CC)CC)N1CC1CC` (stereo not given) was tested, and the T/C [18] was 127 % of control, the survivor count (dose: 225.0 mg/kg/injection, schedule: Q01DX009 (ip), vehicle: saline) was 4 of 6 and the T/C [3] was 128 % of control. For the same compound, the survivor count (dose: 337.5 mg/kg/injection, schedule: Q01DX009 (ip), vehicle: saline) was 1 of 6 and the survivor count [12] was 2 of 6.

For `CN(N)C=O`, the survivor count [8] was 6 of 6 and the survivor count [9] was 4 of 6.

For `CC(=O)OCC(OC(C)=O)C(OC(C)=O)C(C#N)OC(C)=O` (stereo not given), the survivor count (dose: 100.0 mg/kg/injection, schedule: Q04DX003 (ip), vehicle: Klucel (hydroxypropylcellulose) (HPC)) was 1 of 6, the survivor count [7] was 0 of 6 and the survivor count [1] was 0 of 6. The survivor count [15] was 1 of 6.

With `Oc1ccc(O)c2[nH]c(-c3ccccc3)cc12` the survivor count (dose: 25.0 mg/kg/injection, schedule: Q04DX002 (ip), vehicle: saline with Tween-80) was 0 of 3 and 0 of 4, the survivor count (dose: 50.0 mg/kg/injection, schedule: Q04DX002 (ip), vehicle: saline with Tween-80) was 0 of 3 and the survivor count [19] was 0 of 3.

For `c1cnc2c(c1)CCCC2`, the survivor count [6] was 3 of 3.
